For at least one compound, name, drawing or mass did not settle the structure. Some of these results come from one statement about several compounds together. Ends that are not written are not given here.
Legend:
[1] = tested on: human breast cancer cells (DS and DR); assay: Single-cell fura-2 [Ca2+]i imaging, DS and DR human breast cancer cells (statements across lines); assay type: cell-based; conditions: both DS and DR cells
MCF-7/ADR cells = assay: Single-cell fura-2 [Ca2+]i imaging, MCF-7/ADR drug-resistant cells; assay type: cell-based, human; conditions: mean ± S.E.M.
[2] = tested on: C6 rat glioblastoma clone B; assay: Single-cell fura-2 [Ca2+]i imaging, C6 clone B; assay type: cell-based
Procedure: (§1) C6 rat glioblastoma cell lines: Wild type cells and progressively doxorubicin-resistant clones were obtained from Dr. J. Robert, Institute Bergonie, Bordeaux, France. Clones were selected by exposure to increasing doses of doxorubicin: Clone A, 0.001 μg/ml; Clone B, 0.1 μg/ml, and Clone E, 0.5 μg/ml.
(§2) For data mentioned below, [Ca^2+]1 was measured by single-cell fura-2 excitation ratio imaging as previously described (DeBernardi, M. A. et al. Mol Pharmacol 43:451-58, 1993). Cells, grown on 25 mm round, 1 mm-thick glass coverslips were loaded with cell-permeable fura-2 AM (5 uM; Molecular Probes, Eugene, Oreg.) at 37° C. in growth medium for 30-60 min. […] Cells were imaged at room temperature in H/H buffer using an Attofluor RatioVision Digital Fluorescence Microscopy System (Atto Bioscience, Rockville, Md.) equipped with a Zeiss Axiovert 135 microscope and a F-Fluar 40×, 1.3 na, oil-immersion objective. Fura-2 was excited at 334 and 380 nm with the emission monitored at >510 nm; the 334/380 nm excitation ratio increases as a function of the [Ca^2+]1. […] For each coverslip, 10-99 cells were simultaneously imaged in a given microscopic field and [Ca^2+]1 was recorded from each individual cell in resting and stimulated conditions. […]

MCF-7/AdVp cells = assay: Single-cell fura-2 [Ca2+]i imaging, MCF-7/Ad-Vp drug-resistant cells; assay type: cell-based, human; conditions: mean ± S.E.M.
[3] = tested on: C6 rat glioblastoma clone A; assay: Single-cell fura-2 [Ca2+]i imaging, C6 clone A; assay type: cell-based
Procedure: as §1, §2

MCF-7 wt cells = assay: Single-cell fura-2 [Ca2+]i imaging, MCF-7 wt drug-sensitive cells; assay type: cell-based, human; conditions: mean ± S.E.M.
[4] = tested on: C6 rat glioblastoma clone E; assay: Single-cell fura-2 [Ca2+]i imaging, C6 clone E; assay type: cell-based
Procedure: as §1, §2

MCF-7/C4 cells = assay: Single-cell fura-2 [Ca2+]i imaging, MCF-7/C4 drug-resistant cells; assay type: cell-based, human; conditions: mean ± S.E.M.
Source text: More specifically, human breast cancer cell (“bc”) lines were obtained from the following sources: wild type (“wt”), estrogen receptor-positive MCF-7 cells were obtained from three different sources: American Type Culture Collection (ATCC, Manassas, Va.), the Lombardi Cancer Center, Georgetown University (Washington, D.C.) and the National Cancer Institute, NIH (Bethesda, Md.) and will be referred to as “wt”, DS MCF-7 throughout the paper. Wild type, estrogen receptor-negative MDA-MB-231 cells were obtained from the Lombardi Cancer Center, Georgetown University. Five DR, MCF-7-derived clonal cell lines were used in this study. […]
as §2, with “1993).” for “1993). Cells, grown on 25 mm round, 1 mm-thick glass coverslips were loaded with cell-permeable fura-2 AM (5 uM; Molecular Probes, Eugene, Oreg.) at 37° C. in growth medium for 30-60 min.”

MCF-7/VP cells = assay: Single-cell fura-2 [Ca2+]i imaging, MCF-7/VP drug-resistant cells; assay type: cell-based, human; conditions: mean ± S.E.M.

Nc1ncnc2c1ncn2[C@@H]1O[C@H](COP(=O)(O)OP(=O)(O)OP(=O)(O)O)[C@@H](O)[C@H]1O [ATP]
Cells being imaged in which the agonist evoked Ca2+ responses [1]: > 95%

O=c1ccn([C@@H]2O[C@H](COP(=O)(O)OP(=O)(O)OP(=O)(O)O)[C@@H](O)[C@H]2O)c(=O)[nH]1 [UTP]
Cells being imaged in which the agonist evoked Ca2+ responses [1]: > 95%

RPPGFSPFR [BK, bradykinin]
Fold [Ca2+]i increase evoked by agonist (MCF-7/ADR cells): 1.9 ± 0.5 fold
Cells being imaged in which the agonist evoked Ca2+ responses [1]: < 30%
Induced [Ca2+]i increase compared with C6 parental cells ([2]; C6 clone B): reduced response
[Ca2+]i decay t1/2, % of parental cells ([2]; C6 clone B vs wild type C6): 228±84%
Fold [Ca2+]i increase evoked by agonist (MCF-7/AdVp cells): 3.5 ± 1.0 fold
Induced [Ca2+]i increase compared with C6 parental cells ([3]; C6 clone A): comparable or greater
[Ca2+]i decay t1/2, % of parental cells ([3]; C6 clone A vs wild type C6): 167±63%
Fold [Ca2+]i increase evoked by agonist (MCF-7 wt cells): 4.1 ± .8 (n-16) fold
Induced [Ca2+]i increase compared with C6 parental cells ([4]; C6 clone E): reduced response
[Ca2+]i decay t1/2, % of parental cells ([4]; C6 clone E vs wild type C6): 250±41%
Fold [Ca2+]i increase evoked by agonist (MCF-7/C4 cells): 3.0 ± 0.6 fold
Fold [Ca2+]i increase evoked by agonist (MCF-7/VP cells): 3.3 ± 1.7 fold

α-thrombin
Cells being imaged in which the agonist evoked Ca2+ responses [1]: < 30%
